In all, about 1,900 compounds were measured (“excess over highest single agent (ExcessHSA) synergy score, 6x6 matrix”: median about -83, lowest 2% from about -370 on). This is one part of the list.

The test system of this experiment is NCI-H446. As to the kind of experiment: excess over highest single agent (ExcessHSA) synergy score, 6x6 matrix; higher = less synergy (more negative = stronger synergy). Particulars: 72 h; CellTiter-Glo viability. (In general: Cellular ATP, detected with luciferase, serves as a proxy for viable cell number.)
Consider `Nc1ncnc2c1c(-c1cccc(OCc3ccccc3)c1)cn2C1CC(CN2CCCC2)C1` (stereo not drawn) + Cc1sc2c(c1C)C(c1ccc(Cl)cc1)=N[C@@H](CC(=O)OC(C)(C)C)c1nnc(C)n1-2 [NCGC00250412-19], for which the “excess over highest single agent” value is -89.7.
Turning to `O=C(Nc1cccc(Cl)c1)Nc1ncc(CCNc2ncnc3ccsc23)s1` + Cc1sc2c(c1C)C(c1ccc(Cl)cc1)=N[C@@H](CC(=O)OC(C)(C)C)c1nnc(C)n1-2 [NCGC00250412-19], the “excess over highest single agent” value is -121.
On to `CNC(=O)c1ccc(N2C(=S)N(c3ccc(C#N)c(C(F)(F)F)c3)C(=O)C23CCC3)cc1F` + Cc1sc2c(c1C)C(c1ccc(Cl)cc1)=N[C@@H](CC(=O)OC(C)(C)C)c1nnc(C)n1-2 [NCGC00250412-19], for which the “excess over highest single agent” value was -51.1.
As to `CN(C)c1ccc(C2Nc3ccc4ccccc4c3C3=C2C(=O)CC(C)(C)C3)cc1Br` (stereo not drawn) + Cc1sc2c(c1C)C(c1ccc(Cl)cc1)=N[C@@H](CC(=O)OC(C)(C)C)c1nnc(C)n1-2 [NCGC00250412-19], the “excess over highest single agent” value is -30.1.
As for `O=S(=O)(N=Cc1c(O)ccc2ccccc12)c1cccs1` + Cc1sc2c(c1C)C(c1ccc(Cl)cc1)=N[C@@H](CC(=O)OC(C)(C)C)c1nnc(C)n1-2 [NCGC00250412-19], the “excess over highest single agent” value is -64.2.
On to `Fc1ccc(CNc2ncnc3ccc(F)cc23)cc1` + Cc1sc2c(c1C)C(c1ccc(Cl)cc1)=N[C@@H](CC(=O)OC(C)(C)C)c1nnc(C)n1-2 [NCGC00250412-19], for which the “excess over highest single agent” value worked out at 121.
For the compound `OC[C@H]1OC(O)C[C@@H](O)[C@@H]1O` (stereo partly drawn) + Cc1sc2c(c1C)C(c1ccc(Cl)cc1)=N[C@@H](CC(=O)OC(C)(C)C)c1nnc(C)n1-2 [NCGC00250412-19], the “excess over highest single agent” value was -201.
The value for `COc1cc2ncnc(Nc3cc(Br)c(O)c(Br)c3)c2cc1OC` + Cc1sc2c(c1C)C(c1ccc(Cl)cc1)=N[C@@H](CC(=O)OC(C)(C)C)c1nnc(C)n1-2 [NCGC00250412-19] was -207; that for `CO[C@H]1C[C@@H]2CC[C@@H](C)[C@@](O)(O2)C(=O)C(=O)N2CCCC[C@H]2C(=O)O[C@H]([C@H](C)C[C@@H]2CC[C@@H](OP(C)(C)=O)[C@H](OC)C2)CC(=O)[C@H](C)/C=C(\C)[C@@H](O)[C@@H](OC)C(=O)[C@H](C)C[C@H](C)/C=C/C=C/C=C/1C` + Cc1sc2c(c1C)C(c1ccc(Cl)cc1)=N[C@@H](CC(=O)OC(C)(C)C)c1nnc(C)n1-2 [NCGC00250412-19] was -543.
On to `CC(C)(C)NCC(O)c1ccc(O)c(CO)c1` (stereo not drawn) + Cc1sc2c(c1C)C(c1ccc(Cl)cc1)=N[C@@H](CC(=O)OC(C)(C)C)c1nnc(C)n1-2 [NCGC00250412-19], for which the “excess over highest single agent” value is -52.6.
Regarding `C#CCN(C)CC1=Cc2ccccc2Oc2ccccc21` + Cc1sc2c(c1C)C(c1ccc(Cl)cc1)=N[C@@H](CC(=O)OC(C)(C)C)c1nnc(C)n1-2 [NCGC00250412-19], the “excess over highest single agent” value is -204.
As for `Cc1c(OCC(F)(F)F)ccnc1C[S+]([O-])c1nc2ccccc2[nH]1` (stereo not drawn) + Cc1sc2c(c1C)C(c1ccc(Cl)cc1)=N[C@@H](CC(=O)OC(C)(C)C)c1nnc(C)n1-2 [NCGC00250412-19], the “excess over highest single agent” value is -33.7.
`C/C=C(/C)C(=O)O[C@H]1C(C)=C2[C@H]([C@@H]1OC(=O)CCCCCCC)[C@@](C)(OC(C)=O)C[C@H](OC(=O)CCC)[C@@]1(O)[C@H]2OC(=O)[C@@]1(C)O` + Cc1sc2c(c1C)C(c1ccc(Cl)cc1)=N[C@@H](CC(=O)OC(C)(C)C)c1nnc(C)n1-2 [NCGC00250412-19]: the “excess over highest single agent” value was -67.2.
`Cn1c(=O)c2c(ncn2C)n(C)c1=O` + Cc1sc2c(c1C)C(c1ccc(Cl)cc1)=N[C@@H](CC(=O)OC(C)(C)C)c1nnc(C)n1-2 [NCGC00250412-19]: the “excess over highest single agent” value was -34.8.
As for `CC[C@@H]1C(=O)N(C)c2cnc(Nc3ccc(C(=O)NC4CCN(C)CC4)cc3OC)nc2N1C1CCCC1` + Cc1sc2c(c1C)C(c1ccc(Cl)cc1)=N[C@@H](CC(=O)OC(C)(C)C)c1nnc(C)n1-2 [NCGC00250412-19], the “excess over highest single agent” value was -91.1.
As to `COc1cc(OC)cc(-c2ccc3ncc4ccc(=O)n(-c5ccc(N6CCNCC6)c(C(F)(F)F)c5)c4c3c2)c1` + Cc1sc2c(c1C)C(c1ccc(Cl)cc1)=N[C@@H](CC(=O)OC(C)(C)C)c1nnc(C)n1-2 [NCGC00250412-19], the “excess over highest single agent” value was -287.
`Cc1ccc(-n2[nH]c(C)c(N=Nc3cccc(-c4cccc(C(=O)O)c4)c3O)c2=O)cc1C` + Cc1sc2c(c1C)C(c1ccc(Cl)cc1)=N[C@@H](CC(=O)OC(C)(C)C)c1nnc(C)n1-2 [NCGC00250412-19]: the “excess over highest single agent” value came out at 23.8.
In the case of `COC(=O)Nc1nc2cc(C(=O)c3ccc(F)cc3)ccc2[nH]1` + Cc1sc2c(c1C)C(c1ccc(Cl)cc1)=N[C@@H](CC(=O)OC(C)(C)C)c1nnc(C)n1-2 [NCGC00250412-19], the “excess over highest single agent” value is -39.
For `C[C@]12CC[C@H]3[C@@H](CCC4=CC(=O)CC[C@@]43C)[C@@H]1CC[C@@H]2OC(=O)CCC1CCCC1` + Cc1sc2c(c1C)C(c1ccc(Cl)cc1)=N[C@@H](CC(=O)OC(C)(C)C)c1nnc(C)n1-2 [NCGC00250412-19], the “excess over highest single agent” value was -227.
In the case of `COC1=C(OC)C(=O)C(C/C=C(\C)CC/C=C(\C)CC/C=C(\C)CC/C=C(\C)CC/C=C(\C)CC/C=C(\C)CC/C=C(\C)CC/C=C(\C)CC/C=C(\C)CCC=C(C)C)=C(C)C1=O` + Cc1sc2c(c1C)C(c1ccc(Cl)cc1)=N[C@@H](CC(=O)OC(C)(C)C)c1nnc(C)n1-2 [NCGC00250412-19] it was -97.2; in that of `COc1ccc(COc2cc3oc(=O)c4cc(C(C)O)ccc4c3cc2OC)cc1` (stereo not drawn) + Cc1sc2c(c1C)C(c1ccc(Cl)cc1)=N[C@@H](CC(=O)OC(C)(C)C)c1nnc(C)n1-2 [NCGC00250412-19], -50.3.
In the case of `NC1=N[C@@]2(c3cc(NC(=O)c4ccc(F)cn4)ccc3F)COC[C@H]2CS1` + Cc1sc2c(c1C)C(c1ccc(Cl)cc1)=N[C@@H](CC(=O)OC(C)(C)C)c1nnc(C)n1-2 [NCGC00250412-19], the “excess over highest single agent” value was -165.
Regarding `N=C1S/C(=C\c2ccc(-c3ccc4c(c3)C(=O)NC4=O)o2)C(=O)N1c1ccc(Br)cc1` + Cc1sc2c(c1C)C(c1ccc(Cl)cc1)=N[C@@H](CC(=O)OC(C)(C)C)c1nnc(C)n1-2 [NCGC00250412-19], the “excess over highest single agent” value came out at 122.
`CN(C)CCC(c1ccc(Cl)cc1)c1ccccn1` (stereo not drawn) + Cc1sc2c(c1C)C(c1ccc(Cl)cc1)=N[C@@H](CC(=O)OC(C)(C)C)c1nnc(C)n1-2 [NCGC00250412-19]: the “excess over highest single agent” value was -263.
Consider `CCC(=O)NCC[C@@H]1CCc2ccc3c(c21)CCO3` + Cc1sc2c(c1C)C(c1ccc(Cl)cc1)=N[C@@H](CC(=O)OC(C)(C)C)c1nnc(C)n1-2 [NCGC00250412-19], for which the “excess over highest single agent” value was 35.5.
On to `COc1ccc(-c2coc3cc(O)cc(O)c3c2=O)cc1` + Cc1sc2c(c1C)C(c1ccc(Cl)cc1)=N[C@@H](CC(=O)OC(C)(C)C)c1nnc(C)n1-2 [NCGC00250412-19], for which the “excess over highest single agent” value was -134.
With `C=CC(=O)N1CCc2ccc(-n3c(=O)ccc4cnc5ccc(-c6cnn(C)c6)cc5c43)cc21` + Cc1sc2c(c1C)C(c1ccc(Cl)cc1)=N[C@@H](CC(=O)OC(C)(C)C)c1nnc(C)n1-2 [NCGC00250412-19], the “excess over highest single agent” value is -132.
The value for `O=C(NC1CCNCC1)c1n[nH]cc1NC(=O)c1c(Cl)cccc1Cl` + Cc1sc2c(c1C)C(c1ccc(Cl)cc1)=N[C@@H](CC(=O)OC(C)(C)C)c1nnc(C)n1-2 [NCGC00250412-19] was -145.
Regarding `CC(C)c1noc(N2CCC(COc3ccc(-c4ccc(S(C)(=O)=O)cc4)nc3)CC2)n1` + Cc1sc2c(c1C)C(c1ccc(Cl)cc1)=N[C@@H](CC(=O)OC(C)(C)C)c1nnc(C)n1-2 [NCGC00250412-19], the “excess over highest single agent” value is 12.5.
The value for `COc1ccc(CC2NCCc3cc(OC)c(OC)cc32)cc1OC` (stereo not drawn) + Cc1sc2c(c1C)C(c1ccc(Cl)cc1)=N[C@@H](CC(=O)OC(C)(C)C)c1nnc(C)n1-2 [NCGC00250412-19] was -81.7; that for `CCCCCCCCCCCCCC(=O)N[C@H](CO)[C@H](O)c1ccc([N+](=O)[O-])cc1` + Cc1sc2c(c1C)C(c1ccc(Cl)cc1)=N[C@@H](CC(=O)OC(C)(C)C)c1nnc(C)n1-2 [NCGC00250412-19] was -104; that for `COc1ccc(Nc2cc(-c3cnc(N)nc3)nc(N3CCOCC3)n2)cn1` + Cc1sc2c(c1C)C(c1ccc(Cl)cc1)=N[C@@H](CC(=O)OC(C)(C)C)c1nnc(C)n1-2 [NCGC00250412-19] was 3.49.
Regarding `CC[C@H](Nc1ncnc2[nH]cnc12)c1nc2cccc(F)c2c(=O)n1-c1ccccc1` + Cc1sc2c(c1C)C(c1ccc(Cl)cc1)=N[C@@H](CC(=O)OC(C)(C)C)c1nnc(C)n1-2 [NCGC00250412-19], the “excess over highest single agent” value is -121.
In the case of `CCCC(CCC)C(=O)O` + Cc1sc2c(c1C)C(c1ccc(Cl)cc1)=N[C@@H](CC(=O)OC(C)(C)C)c1nnc(C)n1-2 [NCGC00250412-19] it was 14.8; in that of `CN(C)CCCC1(c2ccc(F)cc2)OCc2cc(C#N)ccc21` (stereo not drawn) + Cc1sc2c(c1C)C(c1ccc(Cl)cc1)=N[C@@H](CC(=O)OC(C)(C)C)c1nnc(C)n1-2 [NCGC00250412-19], -117.
With `CN(C)[C@@H](CCOc1cccc2ccccc12)c1ccccc1` + Cc1sc2c(c1C)C(c1ccc(Cl)cc1)=N[C@@H](CC(=O)OC(C)(C)C)c1nnc(C)n1-2 [NCGC00250412-19], the “excess over highest single agent” value was -59.8.
The value for `COC[C@@H](c1ccc(C(F)(F)F)cc1)N1CCN(C2(C)CCN(C(=O)c3c(C)ncnc3C)CC2)C[C@@H]1C` + Cc1sc2c(c1C)C(c1ccc(Cl)cc1)=N[C@@H](CC(=O)OC(C)(C)C)c1nnc(C)n1-2 [NCGC00250412-19] was -160; that for `Cc1onc(-c2ccccc2)c1C(=O)N[C@@H]1C(=O)N2[C@@H]1SC(C)(C)[C@@H]2C(=O)O` + Cc1sc2c(c1C)C(c1ccc(Cl)cc1)=N[C@@H](CC(=O)OC(C)(C)C)c1nnc(C)n1-2 [NCGC00250412-19] was -4.12.

(Values after the supplement of paper PMC10077471.)
